Measurements reported in the supplement of paper PMC3334620.
In all, about 33,000 sequences were measured (“E-score (-0.5 to 0.5)”: median about -0.0059, highest 2% from about 0.26 on). The list shows a part of the results.

Molecular target: T1, Cin5 (UniProt P40917)
T1 sequence: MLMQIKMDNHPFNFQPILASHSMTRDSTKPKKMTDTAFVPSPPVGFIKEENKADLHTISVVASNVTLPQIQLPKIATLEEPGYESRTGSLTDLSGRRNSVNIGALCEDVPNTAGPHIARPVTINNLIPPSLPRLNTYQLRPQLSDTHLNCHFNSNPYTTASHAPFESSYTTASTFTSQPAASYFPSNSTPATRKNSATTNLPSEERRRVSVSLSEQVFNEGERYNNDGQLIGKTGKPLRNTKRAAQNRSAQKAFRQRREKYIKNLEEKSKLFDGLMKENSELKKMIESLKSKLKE
Assay: PBM E-score (8-mer binding enrichment) (E-score (-0.5 to 0.5)); higher = stronger / more preferred TF binding
Settings: protein concentration: 100 nM; construct: GST-full length
Outline: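 E-scores (a modified Wilcoxon-Mann-Whitney statistic) were assigned by the Universal PBM Analysis Suite to every ungapped eight-base word pooled with its reverse complement. The input came from universal all-10-mer Agilent arrays made double-stranded by primer extension and probed with GST-tagged yeast transcription factors at about 100-200 nM. Fluorescent anti-GST detected bound protein, and masliner normalised the scans.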

| Sequence | PBM E-score |
| --- | --- |
| ACTATACC | 0.0743 |
| CGTACGGA | 0.0565 |
| CCTAGAGG | -0.25 |
| GTTGACCA | 0.0329 |
| AAGTTACT | 0.0383 |
| TCAATACA | 0.13 |
| AGCGAGTG | 0.00194 |
| AATGAAAG | 0.0582 |
| AAGAGTCA | -0.12 |
| ATAACACC | 0.054 |
| GTGTGCTA | 0.00044 |
| ATATCTCG | -0.0133 |
| CATGCGTC | -0.134 |
| AGCCGAGC | -0.0946 |
| GAGCGAAC | -0.0644 |
| CGGTATGA | 0.0284 |
| GAGCGTCA | -0.0972 |
| GGTGTCTA | -0.005 |
| GGGTGAAA | 0.0803 |
| AGATTAAG | 0.0973 |
| AGGGTAGC | -0.121 |
| AGTCGACG | 0.218 |
| TGGCGCAA | -0.0192 |
| GCCGTGAA | 0.0821 |
| ATTAACTC | 0.17 |

| Sequence | PBM E-score |
| --- | --- |
| AGAGCACC | -0.141 |
| ACGTGATA | 0.102 |
| AAAAAAGA | 0.0721 |
| CTACTCGA | -0.00691 |
| AATTAGCA | 0.191 |
| TCACCGAA | -0.0145 |
| AGCGGACA | -0.0571 |
| ACATAAAC | 0.263 |
| ATTAACGC | 0.0183 |
| TCGCCAGA | -0.105 |
| AATAAACC | 0.216 |
| CATACTCG | 0.189 |
| AGACAGCA | 0.0211 |
| ACCGAAAG | -0.129 |
| AAGTGTTA | 0.082 |
| TACTACAA | 0.257 |
| CAGTCCAA | -0.117 |
| ACACGAGA | -0.0454 |
| ATGGGCCA | -0.0218 |
| AATATAAC | 0.244 |
| AAATGGTT | 0.0663 |
| CGCCCGAC | -0.00944 |
| CTAGTACC | -0.112 |
| ACGAGAAG | -0.156 |
| GTAGGATA | 0.0391 |

| Sequence | PBM E-score |
| --- | --- |
| AATCCACG | 0.0163 |
| TAAGCATA | 0.252 |
| ATGAAGTC | -0.0217 |
| GTTTGTTA | 0.0839 |
| ATGCGCGG | 0.00512 |
| AAACTGCG | -0.0384 |
| ATTGATCG | 0.158 |
| ATGGCAGA | 0.0884 |
| CCGCGCCG | -0.131 |
| CCCGAGTC | -0.0328 |
| ATGATGCG | 0.0905 |
| CAACGTGA | -0.107 |
| TACGTTCA | 0.113 |
| CACACCAC | 0.201 |
| AATCCTTC | -0.0854 |
| ACACCAAC | 0.00809 |
| GGTCCGAA | 0.0406 |
| ACGCTACA | 0.2 |
| GCGGAACC | 0.139 |
| TCACAGGA | 0.0472 |
| CCATCTTC | 0.0837 |
| TACATATA | 0.243 |
| AGACTAGA | -0.232 |
| TGTTGTAA | 0.205 |
| CCTTGCCC | -0.0332 |

| Sequence | PBM E-score |
| --- | --- |
| AGCCAAGG | 0.0802 |
| AAAACTTA | 0.142 |
| ATAACTTG | 0.166 |
| TCCGTCAA | 0.17 |
| ATTTACAA | 0.151 |
| AATAACCG | -0.00942 |
| AATTTCAG | -0.0627 |
| ACAGCAAG | 0.204 |
| ACGGCCCC | -0.341 |
| AGGGGGGC | -0.479 |
| AACTAGCC | -0.0212 |
| GAAGCGGC | -0.171 |
| GACGTGAA | -0.139 |
| CTAGTCGC | -0.209 |
| CTAGACAA | -0.0647 |
| CAGGAACA | -0.0229 |
| CCAAGTGG | -0.0395 |
| GTATTGCA | 0.0735 |
| TATATTCA | 0.235 |
| TCTGTGAA | 0.0383 |
| CCCGATAA | -0.0584 |
| CAGTTATA | 0.073 |
| TAGTACCA | 0.0162 |
| CGCTCGGA | 0.105 |
| AACCCCTC | -0.0978 |

4 entries from above, reformatted:
CTAGACAA
  PBM E-score = -0.0647
CAGGAACA
  PBM E-score = -0.0229
CCAAGTGG
  PBM E-score = -0.0395
GTATTGCA
  PBM E-score = 0.0735

The list goes on.

| Sequence | PBM E-score |
| --- | --- |
| ACCTTCCT | -0.197 |
| CCGTAGAC | -0.157 |
| CAATAACG | 0.0405 |
| CAAAAAAA | 0.221 |
| CATCAGCG | 0.00868 |
| ACGTGTTC | -0.146 |
| TACGCTAA | 0.116 |
| TATATGGA | 0.174 |
| AGTTCCAC | 0.0751 |
| ATCCAAAC | 0.19 |
| CGGCGCGC | -0.0242 |
| AACCAGCC | -0.11 |
| AGATTCAC | -0.0994 |
| CTTATTTA | 0.164 |
| TAGGCCGA | -0.22 |
| AAAAGGTC | -0.196 |
| CTGTTTTA | 0.195 |
| CAACATGC | 0.117 |
| CGAGTGGA | -0.14 |
| GCACCGGA | -0.195 |
| CCAATACC | 0.0345 |
| CGTCCGTA | 0.045 |
| ACCTAGAT | 0.0544 |
| CAACAATC | 0.209 |
| CTTGTCCA | 0.0549 |

| Sequence | PBM E-score |
| --- | --- |
| CAACTCGC | 0.159 |
| CCCTCTAA | -0.2 |
| ATAGCGAA | 0.162 |
| GTCACAGA | 0.15 |
| CACGTACG | -0.0318 |
| TGAGAGAA | 0.0296 |
| AGACGGTC | -0.165 |
| ATACAGTA | 0.124 |
| CAGCCGCG | 0.0208 |
| CCGGGCAG | -0.271 |
| TATTTCCA | 0.0646 |
| CGGAGCCC | -0.336 |
| AGAAGACA | 0.00376 |
| AGGAGAGC | -0.394 |
| CTATAGCA | 0.0316 |
| AAGCGTTG | -0.0172 |
| ACCGTGAC | -0.108 |
| ACTTGACC | -0.117 |
| AAAAATGG | 0.183 |
| TCCATACA | 0.069 |
| CGTGGTAC | -0.222 |
| GGCTCACA | -0.0409 |
| GACACGTA | -0.0377 |
| CATGTCGG | 0.0346 |
| CAGCGTAG | -0.0461 |

Four entries drawn at random from the list so far, as already listed:

| Sequence | PBM E-score |
| --- | --- |
| CGGAGCCC | -0.336 |
| ATACAGTA | 0.124 |
| AGACGGTC | -0.165 |
| ACCGTGAC | -0.108 |

Further records follow.

| Sequence | PBM E-score |
| --- | --- |
| AAGGACCG | -0.0654 |
| AGCGTCTC | -0.169 |
| CATTCAAG | -0.0484 |
| CTACTTAA | -0.0293 |
| GAGTATGC | 0.0732 |
| AGTCCTAG | -0.26 |
| CCTCCGTA | -0.0143 |
| CTCCGGTC | -0.18 |
| GAATGGCC | 0.0115 |
| CAGTCGTC | -0.182 |
| CATCGAGC | 0.0681 |
| CCTCCTGA | -0.173 |
| GGACTTAC | -0.103 |
| ATGAGATA | 0.183 |
| TCCGAGGA | -0.124 |
| CCCGTCTC | -0.199 |
| CCGGTCCG | -0.145 |
| GCACCCAA | -0.0435 |
| ATGGGTTG | 0.211 |
| CTAAGCAG | 0.042 |
| TCAATCCA | 0.133 |
| GCGATCAA | -0.0741 |

A second format for part of the listing above:
Sequence	PBM E-score
ATTAACTC	0.17
ACCGAAAG	-0.129
AGACGGTC	-0.165
